These are yes or no findings as the source states them, for the method shown. Sequences can lack the tags named with a protein.
Biological target: DBD (DNA binding domain of PhaR from Ralstonia eutropha, 1st to 106th amino acid) (Ralstonia eutropha H16)
Assay: two-hybrid; bacterial two-hybrid in E. coli XL1-Blue: DBD (PhaR 1-106)-bait on the phaP promoter, prey-PhaP on PHB granules made in vivo (phaCAB), lacZ reporter under the phaP promoter, read as beta-galactosidase activity; LB with 20 g/L glucose, 14 h, 37°C, 200 rpm

Binder: CGGLTDTLQAETDQLEDKKSALQTEIANLLKEKEKLEFILAAY (domain or fragment) [bFos-PhaP (bZIP domain of Fos fused to the PHA granule-associated protein PhaP)]
- binding: no binding

From paper PMC3079617
